Measurements: patent US6623738 (University of California, dated 2003)
These are yes or no findings as the source states them, for the method shown. Some entries that bind do so weakly or less than the wild type. Sequences can lack the tags named with a protein.

Protein sequences, listed by entry. Tags and fused reporters are not part of them. Lines headed by an entry give the natural chain unless they say otherwise; changes in a name come on top.
UniProt O35375: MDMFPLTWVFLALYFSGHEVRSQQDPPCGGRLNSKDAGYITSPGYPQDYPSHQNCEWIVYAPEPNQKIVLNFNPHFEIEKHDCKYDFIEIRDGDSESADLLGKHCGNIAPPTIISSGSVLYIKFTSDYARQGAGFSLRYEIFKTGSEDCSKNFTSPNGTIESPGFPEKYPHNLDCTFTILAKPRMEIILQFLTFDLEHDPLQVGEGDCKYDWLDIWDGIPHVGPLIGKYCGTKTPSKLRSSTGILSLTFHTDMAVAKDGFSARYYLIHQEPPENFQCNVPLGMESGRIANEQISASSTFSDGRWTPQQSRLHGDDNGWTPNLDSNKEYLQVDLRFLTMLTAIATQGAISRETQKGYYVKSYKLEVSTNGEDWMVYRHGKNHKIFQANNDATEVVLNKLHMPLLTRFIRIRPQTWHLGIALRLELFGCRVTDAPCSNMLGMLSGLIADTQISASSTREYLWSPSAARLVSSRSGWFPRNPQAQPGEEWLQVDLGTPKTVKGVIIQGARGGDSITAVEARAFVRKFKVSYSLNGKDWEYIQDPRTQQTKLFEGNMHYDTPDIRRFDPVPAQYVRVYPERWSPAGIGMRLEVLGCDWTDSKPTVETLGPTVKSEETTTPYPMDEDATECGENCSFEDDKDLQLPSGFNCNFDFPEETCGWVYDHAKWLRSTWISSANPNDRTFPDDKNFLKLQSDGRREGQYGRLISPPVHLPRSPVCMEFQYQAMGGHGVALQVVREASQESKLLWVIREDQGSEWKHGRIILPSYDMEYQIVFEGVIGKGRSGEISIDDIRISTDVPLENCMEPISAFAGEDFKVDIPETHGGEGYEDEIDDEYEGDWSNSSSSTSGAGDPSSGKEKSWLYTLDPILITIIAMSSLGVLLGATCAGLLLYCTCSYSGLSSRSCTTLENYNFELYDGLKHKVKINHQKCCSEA

Assays:
[1] = target: T1, mouse neuropilin-2(a0), myc-tagged, expressed in COS-7 cells (mouse) (UniProt O35375); assay: AP fusion binding to transfected COS cells
T1 sequence: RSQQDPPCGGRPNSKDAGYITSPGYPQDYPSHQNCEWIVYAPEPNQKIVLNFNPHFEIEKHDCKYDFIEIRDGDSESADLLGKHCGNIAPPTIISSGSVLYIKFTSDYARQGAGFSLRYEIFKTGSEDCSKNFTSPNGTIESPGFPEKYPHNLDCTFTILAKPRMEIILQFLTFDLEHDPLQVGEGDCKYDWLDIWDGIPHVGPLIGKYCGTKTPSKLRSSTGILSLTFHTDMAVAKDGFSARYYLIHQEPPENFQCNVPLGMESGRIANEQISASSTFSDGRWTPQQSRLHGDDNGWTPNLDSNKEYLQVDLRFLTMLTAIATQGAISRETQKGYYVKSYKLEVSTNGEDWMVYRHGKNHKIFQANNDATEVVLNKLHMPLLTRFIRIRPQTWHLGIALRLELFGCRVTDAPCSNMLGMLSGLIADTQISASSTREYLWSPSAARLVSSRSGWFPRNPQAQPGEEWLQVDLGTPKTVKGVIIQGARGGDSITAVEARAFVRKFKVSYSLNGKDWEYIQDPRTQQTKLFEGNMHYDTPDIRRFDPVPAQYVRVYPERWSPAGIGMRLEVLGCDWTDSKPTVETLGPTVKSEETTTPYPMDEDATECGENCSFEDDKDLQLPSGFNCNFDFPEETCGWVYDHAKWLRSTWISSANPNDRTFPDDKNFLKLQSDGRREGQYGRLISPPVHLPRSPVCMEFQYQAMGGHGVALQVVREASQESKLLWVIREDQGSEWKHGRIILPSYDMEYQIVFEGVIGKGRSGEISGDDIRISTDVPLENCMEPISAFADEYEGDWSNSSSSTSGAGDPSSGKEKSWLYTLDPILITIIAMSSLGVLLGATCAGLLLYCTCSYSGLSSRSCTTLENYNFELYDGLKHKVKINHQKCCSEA

[2] = target: T2, mouse neuropilin-2(a22), myc-tagged, expressed in COS-7 cells (mouse) (UniProt O35375); assay: AP fusion binding to transfected COS cells
T2 sequence: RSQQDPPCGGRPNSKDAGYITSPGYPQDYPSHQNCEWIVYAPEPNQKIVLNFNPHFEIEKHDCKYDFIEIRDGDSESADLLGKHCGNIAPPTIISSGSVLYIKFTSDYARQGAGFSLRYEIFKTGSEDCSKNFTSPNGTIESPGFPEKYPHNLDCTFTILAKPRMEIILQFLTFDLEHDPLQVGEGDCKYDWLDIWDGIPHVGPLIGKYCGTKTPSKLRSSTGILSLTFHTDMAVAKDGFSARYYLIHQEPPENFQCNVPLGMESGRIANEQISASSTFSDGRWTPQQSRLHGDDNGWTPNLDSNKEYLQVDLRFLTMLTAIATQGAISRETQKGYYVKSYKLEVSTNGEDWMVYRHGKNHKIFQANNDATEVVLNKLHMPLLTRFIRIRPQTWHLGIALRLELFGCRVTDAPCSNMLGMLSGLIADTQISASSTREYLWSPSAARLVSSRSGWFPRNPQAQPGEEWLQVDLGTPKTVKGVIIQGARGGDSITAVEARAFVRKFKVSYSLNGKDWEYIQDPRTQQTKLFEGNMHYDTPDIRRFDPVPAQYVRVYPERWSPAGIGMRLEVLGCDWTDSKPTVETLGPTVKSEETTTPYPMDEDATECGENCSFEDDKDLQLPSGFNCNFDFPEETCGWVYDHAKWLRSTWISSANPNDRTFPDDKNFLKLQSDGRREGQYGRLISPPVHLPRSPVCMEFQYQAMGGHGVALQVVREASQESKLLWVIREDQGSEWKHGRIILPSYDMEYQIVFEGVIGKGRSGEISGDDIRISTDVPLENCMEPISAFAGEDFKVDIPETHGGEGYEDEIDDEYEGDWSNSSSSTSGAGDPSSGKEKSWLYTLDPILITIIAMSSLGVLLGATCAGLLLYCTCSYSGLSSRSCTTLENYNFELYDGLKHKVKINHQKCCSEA

[3] = target: T3, mouse neuropilin-2(b5), myc-tagged, expressed in COS-7 cells (mouse); assay: AP fusion binding to transfected COS cells
T3 sequence: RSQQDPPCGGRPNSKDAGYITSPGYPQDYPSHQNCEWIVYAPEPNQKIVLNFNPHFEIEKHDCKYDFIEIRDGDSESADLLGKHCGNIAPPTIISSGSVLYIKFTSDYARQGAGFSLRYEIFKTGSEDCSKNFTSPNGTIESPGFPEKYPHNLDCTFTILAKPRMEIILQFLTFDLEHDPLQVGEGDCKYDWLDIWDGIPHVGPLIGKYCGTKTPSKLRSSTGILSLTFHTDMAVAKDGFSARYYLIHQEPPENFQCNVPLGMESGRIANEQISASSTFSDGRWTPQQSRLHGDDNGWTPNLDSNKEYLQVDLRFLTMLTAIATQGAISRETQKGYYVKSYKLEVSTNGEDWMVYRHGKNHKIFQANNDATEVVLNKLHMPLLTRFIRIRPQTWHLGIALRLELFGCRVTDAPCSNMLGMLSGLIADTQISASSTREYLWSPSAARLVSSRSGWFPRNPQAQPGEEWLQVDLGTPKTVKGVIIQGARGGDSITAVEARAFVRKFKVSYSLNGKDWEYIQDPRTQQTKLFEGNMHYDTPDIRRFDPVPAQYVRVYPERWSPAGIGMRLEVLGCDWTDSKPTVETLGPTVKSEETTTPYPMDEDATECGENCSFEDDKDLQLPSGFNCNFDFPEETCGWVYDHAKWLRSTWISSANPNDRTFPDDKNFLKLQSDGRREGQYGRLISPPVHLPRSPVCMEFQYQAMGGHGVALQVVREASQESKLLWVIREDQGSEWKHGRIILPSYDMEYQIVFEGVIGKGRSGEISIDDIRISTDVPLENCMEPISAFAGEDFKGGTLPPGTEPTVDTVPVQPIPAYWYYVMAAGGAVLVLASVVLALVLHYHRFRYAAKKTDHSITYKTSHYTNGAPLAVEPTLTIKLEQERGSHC

[4] = target: T4, mouse neuropilin-2(a5), myc-tagged, expressed in COS-7 cells (mouse) (UniProt O35375); assay: AP fusion binding to transfected COS cells
T4 sequence: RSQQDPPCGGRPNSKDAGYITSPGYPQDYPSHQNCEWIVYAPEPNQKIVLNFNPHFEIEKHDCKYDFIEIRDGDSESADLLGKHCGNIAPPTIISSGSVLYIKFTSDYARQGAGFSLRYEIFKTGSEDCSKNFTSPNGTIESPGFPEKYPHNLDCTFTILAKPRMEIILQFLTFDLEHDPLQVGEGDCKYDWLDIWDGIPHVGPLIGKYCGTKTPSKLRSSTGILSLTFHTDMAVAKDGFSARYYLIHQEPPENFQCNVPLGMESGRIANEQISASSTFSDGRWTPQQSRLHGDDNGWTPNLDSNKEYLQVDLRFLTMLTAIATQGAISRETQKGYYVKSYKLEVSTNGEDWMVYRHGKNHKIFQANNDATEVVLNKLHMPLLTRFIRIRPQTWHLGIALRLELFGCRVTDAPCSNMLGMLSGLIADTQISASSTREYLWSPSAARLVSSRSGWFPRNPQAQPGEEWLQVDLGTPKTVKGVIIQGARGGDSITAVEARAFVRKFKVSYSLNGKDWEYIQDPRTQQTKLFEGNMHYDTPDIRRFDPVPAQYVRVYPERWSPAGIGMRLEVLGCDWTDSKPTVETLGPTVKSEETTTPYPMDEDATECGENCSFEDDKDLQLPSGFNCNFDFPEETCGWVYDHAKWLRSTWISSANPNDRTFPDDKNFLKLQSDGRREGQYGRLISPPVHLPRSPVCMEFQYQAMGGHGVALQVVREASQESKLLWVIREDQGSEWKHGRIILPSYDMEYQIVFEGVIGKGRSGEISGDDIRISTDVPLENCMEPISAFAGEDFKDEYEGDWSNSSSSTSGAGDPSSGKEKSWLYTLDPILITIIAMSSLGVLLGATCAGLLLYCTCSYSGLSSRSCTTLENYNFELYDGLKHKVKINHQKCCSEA

[5] = target: T3, mouse neuropilin-2(b5), myc-tagged, expressed in COS-7 cells (mouse); assay: equilibrium binding of AP fusion to transfected COS cells (b5 isoform)

Measured: binding

B1: Sema IV-AP fusion protein (human Sema IV fused to alkaline phosphatase) (ligand, UniProt Q13275 19-785, looked up)
chain: SFPTQDHLPATPRVRLSFKELKATGTAHFFNFLLNTTDYRILLKDEDHDRMYVGSKDYVLSLDLHDINREPLIIHWAASPQRIEECVLSGKDVNGECGNFVRLIQPWNRTHLYVCGTGAYNPMCTYVNRGRRAQATPWTQTQAVRGRGSRATDGALRPMPTAPRQDYIFYLEPERLESGKGKCPYDPKLDTASALINEELYAGVYIDFMGTDAAIFRTLGKQTAMRTDQYNSRWLNDPSFIHAELIPDSAERNDDKLYFFFRERSAEAPQSPAVYARIGRICLNDDGGHCCLVNKWSTFLKARLVCSVPGEDGIETHFDELQDVFVQQTQDVRNPVIYAVFTSSGSVFRGSAVCVYSMADIRMVFNGPFAHKEGPNYQWMPFSGKMPYPRPGTCPGGTFTPSMKSTKDYPDEVINFMRSHPLMYQAVYPLQRRPLVVRTGAPYRLTTIAVDQVDAADGRYEVLFLGTDRGTVQKVIVLPKDDQELEELMLEEVEVFKDPAPVKTMTISSKRQQLYVASAVGVTHLSLHRCQAYGAACADCCLARDPYCAWDGQACSRYTASSKRRSRRQDVRHGNPIRQCRGFNSNANKNAVESVQYGVAGSAAFLECQPRSPQATVKWLFQRDPGDRRREIRAEDRFLRTEQGLLLRALQLSDRGLYSCTATENNFKHVVTRVQLHVLGRDAVHAALFPPLSMSAPPPPGAGPPTPPYQELAQLLAQPEVGLIHQYCQGYWRHVPPSPREAPGAPRSPEPQDQKKPRNRRHHPPDT
notes: written as in the name; Partially purified conditioned medium; also called Sema IV/Sema 3F; not shown: secreted alkaline phosphatase in pSecTag-A
binds: [1] | [2] | [3] | [4] | [5]
